Data published in patent publication US20230227838A1, “ENHANCED CELL SURVIVAL AGAINST BIOTIC AND ABIOTIC STRESSES THROUGH SALICYLICK ACID-INDUCED NPR1 CONDENSATES” (priority 2020, published 2023).

Test system: sim3-GFP
Assay: Quantitative LC-MS/MS of sim3-GFP interactome (SINC components)
Design: species or system Arabidopsis thaliana
Details: protein enrichment in the sim3-GFP interactome (SINC components), SA-treated samples versus mock

B1: AT1G16890 (protein, UniProt Q9FZ48 1-153, looked up)
Ubiquitin-conjugating enzyme …: MANSNLPRRIIKETQRLLSEPAPGISASPSEENMRYFNVMILGPTQSPYEGGVFKLELFLPEEYPMAAPKVRFLTKIYHPNIDKLGRICLDILKDKWSPALQIRTVLLSIQALLSAPNPDDPLSENIAKHWKSNEAEAVETAKEWTRLYASGA
- Normalized Fold Change: SA vs Mock: 3.951

B2: AT2G30110 (protein)
chain: MLHKRASEANDKNDNTIIGSDLASSKKRRIDFTESSSDKSSSILASGSSRGFHGDSVVQQIDMAFGNSNRQEIDEDLHSRQLAVYGRETMRRLFASNVLISGMHGLGAEIAKNLILAGVKSVTLHDERVVELWDLSSNFVFSEDDVGKNRADASVQKLQDLNNAVVVSSLTKSLNKEDLSGFQVVVFSDISMERAIEFDDYCHSHQPPIAFVKADVRGLFGSVFCDFGPEFAVLDVDGEEPHTGIIASISNENQAFISCVDDERLEFEDGDLVVFSEVEGMTELNDGKPRKIKSTRPYSFTLDEDTTNYGTYVKGGIVTQVKQPKLLNFKPLREALKDPGDFLFSDFSKFDRPPLLHLAFQALDHFKAEAGRFPVAGSEEDAQKLISIATAINTGQGDLKVENVDQKLLRHFSFGAKAVLNPMAAMFGGIVGQEVVKACSGKFHPLFQFFYFDSVESLPSEPVDSSDFAPRNSRYDAQISVFGAKFQKKLEDAKVFTVGSGALGCEFLKNLALMGVSCGSQGKLTVTDDDIIEKSNLSRQFLFRDWNIGQAKSTVAASAAAVINPRFNIEALQNRVGAETENVFDDAFWENLTVVVNALDNVNARLYVDSRCLYFQKPLLESGTLGTKCNTQSVIPHLTENYGASRDPPEKQAPMCTVHSFPHNIDHCLTWARSEFEGLLEKTPAEVNAYLSSPVEYTNSMMSAGDAQARDTLERIVECLEKEKCETFQDCLTWARLRFEDYFVNRVKQLIYTFPEDAATSTGAPFWSAPKRFPRPLQYSSSDPSLLNFITATAILRAETFGIPIPEWTKNPKEAAEAVDRVIVPDFEPRQDAKIVTDEKATTLTTASVDDAAVIDDLIAKIDQCRHNLSPDFRMKPIQFEKDDDTNYHMDVIAGLANMRARNYSIPEVDKLKAKFIAGRIIPAIATSTAMATGLVCLELYKVLDGGHKVEAYRNTFANLALPLFSMAEPLPPKVVKHRDMAWTVWDRWVLKGNPTLREVLQWLEDKGLSAYSISCGSCLLFNSMFTRHKERMDKKVVDLARDVAKVELPPYRNHLDVVVACEDEDDNDVDIPLVSIYFR
- Normalized Fold Change: SA vs Mock: 3.322

B3: AT5G24530 (protein, UniProt Q9FLV0 1-341, looked up)
Protein DOWNY MILDEW …: MAAKLISTGFRHTTLPENYVRPISDRPRLSEVSQLEDFPLIDLSSTDRSFLIQQIHQACARFGFFQVINHGVNKQIIDEMVSVAREFFSMSMEEKMKLYSDDPTKTTRLSTSFNVKKEEVNNWRDYLRLHCYPIHKYVNEWPSNPPSFKEIVSKYSREVREVGFKIEELISESLGLEKDYMKKVLGEQGQHMAVNYYPPCPEPELTYGLPAHTDPNALTILLQDTTVCGLQILIDGQWFAVNPHPDAFVINIGDQLQALSNGVYKSVWHRAVTNTENPRLSVASFLCPADCAVMSPAKPLWEAEDDETKPVYKDFTYAEYYKKFWSRNLDQEHCLENFLNN
- Normalized Fold Change: SA vs Mock: 15.58
